In patent US11447496B2, “Nitrogen-containing fused heterocyclic ring compound and application thereof” (GUANGZHOU CHINARAY OPTOELECTRONIC MATERIALS LTD., priority 2016, dated 2022):

Assay: OLED device test with the compound as host material (lifetime, luminous efficiency)
Conditions: relative to the value of RefOLED1, Ir(piq)2acac emitter, mass ratio 90:10
Description: 3. The effects of each of the nitrogen-containing fused heterocyclic compounds of Examples 1, 2, 3, 4, 6, 8, 11, and CBP as a host material of the organic electroluminescent device (OLED) on the luminous efficiency and lifetime values of the OLEDs were measured. The current-voltage (J-V) characteristics of the OLED devices are characterized by a characterization equipment, while the lifetime values of the OLED devices were recorded, and the lifetime is represented by T90@1000 nits which is relative to the value of RefOLED1. The specific process is as follows:
The preparation steps of the foregoing OLEDs are as follows:
(1) ITO (indium tin oxide) conductive glass substrates were cleaned using a solvent and treated by UV ozone; wherein the solvent is a mixture of chloroform, acetone and isopropanol in a mass ratio of 5:3:2;
In the case of c1ccc2c(c1)c1ccccc1n2-c1ccc(-c2ccc(-n3c4ccccc4c4ccccc43)cc2)cc1 [CBP, 4,4′-bis(9H-carbazol-9-yl)biphenyl, reference compound], the “Lifetime (T90@1000 nits)” value was 1.
With c1ccc(-c2nc(-c3cccc4c3-c3ccccc3C43c4ccccc4-c4ccccc43)nc(-n3c4ccccc4c4ccc5c6ccccc6n(-c6ccccc6)c5c43)n2)cc1 [Example 1] the “Lifetime (T90@1000 nits)” value was 11.4.
For c1ccc(-c2nc(-c3cccc4c3-c3ccccc3C43c4ccccc4-c4ccccc43)nc(-n3c4ccccc4c4cc5c6ccccc6n(-c6ccccc6)c5cc43)n2)cc1 [Example 2], the “Lifetime (T90@1000 nits)” value was 10.2.
For c1ccc(-c2nc(-c3cccc4c3-c3ccccc3C43c4ccccc4-c4ccccc43)nc(-n3c4ccccc4c4c5c6ccccc6n(-c6ccccc6)c5ccc43)n2)cc1 [Example 3], the “Lifetime (T90@1000 nits)” value was 8.6.
With c1ccc(-c2cc(-c3ccc4c(c3)-c3ccccc3C43c4ccccc4-c4ccccc43)nc(N3c4ccccc4Oc4ccc5c(c43)c3ccccc3n5-c3ccccc3)n2)cc1 [Example 4] the “Lifetime (T90@1000 nits)” value was 3.2.
With CC1(C)c2ccccc2N(c2nc(-c3ccccc3)nc(-c3cccc4c3-c3ccccc3C43c4ccccc4-c4ccccc43)n2)c2ccc3c4ccccc4n(-c4ccccc4)c3c21 [Example 6] the “Lifetime (T90@1000 nits)” value was 5.3.
For CC1(C)c2ccccc2-c2ccc3c4ccccc4n(-c4nc(-c5ccccc5)nc(-c5cccc6c5-c5ccccc5C65c6ccccc6-c6ccccc65)n4)c3c21 [Example 8], the “Lifetime (T90@1000 nits)” value was 6.7.
For [2H]c1cc2c3ccccc3n(-c3nc(-c4ccccc4)cc(-c4ccc5c(c4)-c4ccccc4C54c5ccccc5-c5ccccc54)n3)c2c2c3ccccc3n(-c3ccccc3)c12 [Example 11], the “Lifetime (T90@1000 nits)” value was 9.8.
